# In the supplement of paper PMC12067093, “Discovery and optimisation of a covalent ligand for TRIM25 and its application to targeted protein ubiquitination” (Chemical Science, 2025):
# Sequences of proteins named here, by UniProt entry; tags and fusion partners are left off. A change or cut given only in a name is not applied to a line headed by its entry.
# UniProt Q9UKB1: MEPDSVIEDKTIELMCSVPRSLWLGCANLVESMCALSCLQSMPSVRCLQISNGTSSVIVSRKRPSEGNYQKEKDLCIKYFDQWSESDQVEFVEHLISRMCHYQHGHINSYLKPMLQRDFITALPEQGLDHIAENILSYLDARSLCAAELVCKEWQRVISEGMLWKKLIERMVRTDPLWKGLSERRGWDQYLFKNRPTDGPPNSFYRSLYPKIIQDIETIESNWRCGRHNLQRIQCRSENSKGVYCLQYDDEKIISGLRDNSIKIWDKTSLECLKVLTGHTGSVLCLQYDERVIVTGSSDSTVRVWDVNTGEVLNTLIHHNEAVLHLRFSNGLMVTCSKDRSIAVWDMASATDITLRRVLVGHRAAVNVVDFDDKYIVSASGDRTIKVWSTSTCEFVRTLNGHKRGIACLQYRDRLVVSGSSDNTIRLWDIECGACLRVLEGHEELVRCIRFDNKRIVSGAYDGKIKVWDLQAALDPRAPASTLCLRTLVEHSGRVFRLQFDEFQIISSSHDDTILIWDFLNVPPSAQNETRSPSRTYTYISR
# UniProt Q9Y324: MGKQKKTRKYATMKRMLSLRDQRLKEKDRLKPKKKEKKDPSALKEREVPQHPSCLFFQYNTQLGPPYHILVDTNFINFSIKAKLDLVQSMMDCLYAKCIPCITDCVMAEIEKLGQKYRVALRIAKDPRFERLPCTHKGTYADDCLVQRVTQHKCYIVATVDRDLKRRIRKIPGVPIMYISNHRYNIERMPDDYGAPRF
# UniProt Q9GZU8: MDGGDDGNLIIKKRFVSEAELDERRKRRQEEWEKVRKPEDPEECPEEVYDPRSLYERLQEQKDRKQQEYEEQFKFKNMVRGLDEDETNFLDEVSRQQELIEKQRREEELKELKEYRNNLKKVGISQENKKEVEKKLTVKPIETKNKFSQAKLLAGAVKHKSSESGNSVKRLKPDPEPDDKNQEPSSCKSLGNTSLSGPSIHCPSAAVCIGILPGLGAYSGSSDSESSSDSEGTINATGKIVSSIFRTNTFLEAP
# UniProt Q96AC1: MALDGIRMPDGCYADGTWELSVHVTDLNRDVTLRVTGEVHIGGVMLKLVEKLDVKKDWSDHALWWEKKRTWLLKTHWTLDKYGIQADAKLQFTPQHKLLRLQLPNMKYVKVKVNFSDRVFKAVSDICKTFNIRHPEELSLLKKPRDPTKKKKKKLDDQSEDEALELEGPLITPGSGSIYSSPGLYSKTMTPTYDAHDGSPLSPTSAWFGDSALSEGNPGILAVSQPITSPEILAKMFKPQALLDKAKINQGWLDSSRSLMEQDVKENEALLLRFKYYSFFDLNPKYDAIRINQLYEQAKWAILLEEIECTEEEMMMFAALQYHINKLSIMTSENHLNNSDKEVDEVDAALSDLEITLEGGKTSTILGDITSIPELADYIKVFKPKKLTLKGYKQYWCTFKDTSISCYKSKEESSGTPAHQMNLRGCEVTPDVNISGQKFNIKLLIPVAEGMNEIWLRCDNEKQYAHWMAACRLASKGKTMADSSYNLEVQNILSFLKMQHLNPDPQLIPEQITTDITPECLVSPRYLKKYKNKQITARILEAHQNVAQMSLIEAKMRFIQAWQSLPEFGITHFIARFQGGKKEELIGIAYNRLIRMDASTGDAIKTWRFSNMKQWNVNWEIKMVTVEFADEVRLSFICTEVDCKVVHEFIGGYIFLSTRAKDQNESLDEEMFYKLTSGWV
# UniProt P16591: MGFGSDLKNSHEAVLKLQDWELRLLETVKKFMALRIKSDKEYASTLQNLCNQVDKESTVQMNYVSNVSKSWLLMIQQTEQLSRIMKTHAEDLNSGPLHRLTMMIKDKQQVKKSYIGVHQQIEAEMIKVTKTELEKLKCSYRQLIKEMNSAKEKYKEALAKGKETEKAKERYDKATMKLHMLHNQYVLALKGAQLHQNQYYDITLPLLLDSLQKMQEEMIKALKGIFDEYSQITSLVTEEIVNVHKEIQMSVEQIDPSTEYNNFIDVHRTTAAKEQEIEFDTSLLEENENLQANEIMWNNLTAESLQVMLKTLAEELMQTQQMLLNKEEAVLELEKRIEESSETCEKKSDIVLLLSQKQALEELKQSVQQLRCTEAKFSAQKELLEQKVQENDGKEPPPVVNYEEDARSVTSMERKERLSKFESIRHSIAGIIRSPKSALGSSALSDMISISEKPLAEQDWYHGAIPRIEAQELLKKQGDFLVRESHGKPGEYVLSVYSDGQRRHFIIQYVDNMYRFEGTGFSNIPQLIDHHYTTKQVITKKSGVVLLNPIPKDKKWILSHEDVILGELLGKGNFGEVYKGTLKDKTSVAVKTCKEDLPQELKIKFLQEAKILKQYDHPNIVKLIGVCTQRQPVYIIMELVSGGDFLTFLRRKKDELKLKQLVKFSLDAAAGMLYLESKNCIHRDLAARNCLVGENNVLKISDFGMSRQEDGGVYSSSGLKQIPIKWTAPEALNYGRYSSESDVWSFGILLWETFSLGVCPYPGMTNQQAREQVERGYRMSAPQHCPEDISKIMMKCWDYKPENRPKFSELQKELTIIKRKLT
# UniProt P07332: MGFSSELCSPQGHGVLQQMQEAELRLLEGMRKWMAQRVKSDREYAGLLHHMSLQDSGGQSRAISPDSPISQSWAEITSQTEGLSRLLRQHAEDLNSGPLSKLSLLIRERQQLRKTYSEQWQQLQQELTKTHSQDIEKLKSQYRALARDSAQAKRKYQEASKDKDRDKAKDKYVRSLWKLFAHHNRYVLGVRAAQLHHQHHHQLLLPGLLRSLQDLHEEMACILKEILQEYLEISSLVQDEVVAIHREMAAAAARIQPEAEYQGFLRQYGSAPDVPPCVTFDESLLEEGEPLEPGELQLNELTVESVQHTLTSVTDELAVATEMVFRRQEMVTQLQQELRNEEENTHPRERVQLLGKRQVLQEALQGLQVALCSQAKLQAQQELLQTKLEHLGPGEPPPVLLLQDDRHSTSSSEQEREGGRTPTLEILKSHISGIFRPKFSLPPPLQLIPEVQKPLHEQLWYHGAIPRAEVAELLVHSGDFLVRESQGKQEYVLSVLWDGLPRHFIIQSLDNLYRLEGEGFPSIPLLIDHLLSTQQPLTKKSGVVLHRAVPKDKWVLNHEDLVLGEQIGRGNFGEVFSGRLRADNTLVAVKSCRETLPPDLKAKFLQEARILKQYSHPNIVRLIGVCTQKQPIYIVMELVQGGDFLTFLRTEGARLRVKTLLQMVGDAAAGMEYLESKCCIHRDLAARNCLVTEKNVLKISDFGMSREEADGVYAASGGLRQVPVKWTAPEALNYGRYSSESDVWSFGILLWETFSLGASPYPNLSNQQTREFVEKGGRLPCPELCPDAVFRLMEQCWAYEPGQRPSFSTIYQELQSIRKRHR
# UniProt Q9NVI1: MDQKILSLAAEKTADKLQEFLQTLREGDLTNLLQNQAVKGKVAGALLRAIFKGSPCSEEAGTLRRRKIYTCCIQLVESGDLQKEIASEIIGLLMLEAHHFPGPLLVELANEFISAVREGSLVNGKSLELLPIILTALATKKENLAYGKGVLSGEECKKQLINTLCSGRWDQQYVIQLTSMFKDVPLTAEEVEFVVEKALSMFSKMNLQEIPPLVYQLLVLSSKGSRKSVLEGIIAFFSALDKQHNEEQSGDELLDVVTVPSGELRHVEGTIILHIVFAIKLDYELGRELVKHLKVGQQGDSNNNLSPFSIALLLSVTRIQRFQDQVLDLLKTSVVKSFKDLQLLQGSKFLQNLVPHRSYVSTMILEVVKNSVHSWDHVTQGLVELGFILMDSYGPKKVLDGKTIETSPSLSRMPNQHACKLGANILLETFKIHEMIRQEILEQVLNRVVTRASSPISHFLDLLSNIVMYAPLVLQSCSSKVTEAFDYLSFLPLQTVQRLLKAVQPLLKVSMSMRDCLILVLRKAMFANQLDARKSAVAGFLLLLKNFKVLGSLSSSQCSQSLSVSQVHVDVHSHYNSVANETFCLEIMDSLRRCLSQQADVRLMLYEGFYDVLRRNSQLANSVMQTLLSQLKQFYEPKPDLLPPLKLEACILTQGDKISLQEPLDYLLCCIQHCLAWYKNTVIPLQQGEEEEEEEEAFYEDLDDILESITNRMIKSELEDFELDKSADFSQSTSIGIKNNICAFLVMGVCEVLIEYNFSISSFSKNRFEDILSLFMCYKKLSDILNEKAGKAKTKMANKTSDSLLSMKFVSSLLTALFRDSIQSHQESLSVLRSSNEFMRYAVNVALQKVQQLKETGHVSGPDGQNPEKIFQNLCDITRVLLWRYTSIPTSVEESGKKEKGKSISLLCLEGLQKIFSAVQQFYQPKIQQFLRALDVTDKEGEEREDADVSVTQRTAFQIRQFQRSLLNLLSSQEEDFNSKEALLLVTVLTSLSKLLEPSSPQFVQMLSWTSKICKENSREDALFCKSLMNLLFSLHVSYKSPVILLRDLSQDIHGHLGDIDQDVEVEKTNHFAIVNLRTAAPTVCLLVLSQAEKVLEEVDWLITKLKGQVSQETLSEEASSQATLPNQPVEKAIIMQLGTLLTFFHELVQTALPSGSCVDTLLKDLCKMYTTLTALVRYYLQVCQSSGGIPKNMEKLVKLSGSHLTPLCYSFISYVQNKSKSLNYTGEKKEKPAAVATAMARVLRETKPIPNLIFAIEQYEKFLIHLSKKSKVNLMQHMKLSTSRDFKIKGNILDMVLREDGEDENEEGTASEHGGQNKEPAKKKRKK
# UniProt Q8N612: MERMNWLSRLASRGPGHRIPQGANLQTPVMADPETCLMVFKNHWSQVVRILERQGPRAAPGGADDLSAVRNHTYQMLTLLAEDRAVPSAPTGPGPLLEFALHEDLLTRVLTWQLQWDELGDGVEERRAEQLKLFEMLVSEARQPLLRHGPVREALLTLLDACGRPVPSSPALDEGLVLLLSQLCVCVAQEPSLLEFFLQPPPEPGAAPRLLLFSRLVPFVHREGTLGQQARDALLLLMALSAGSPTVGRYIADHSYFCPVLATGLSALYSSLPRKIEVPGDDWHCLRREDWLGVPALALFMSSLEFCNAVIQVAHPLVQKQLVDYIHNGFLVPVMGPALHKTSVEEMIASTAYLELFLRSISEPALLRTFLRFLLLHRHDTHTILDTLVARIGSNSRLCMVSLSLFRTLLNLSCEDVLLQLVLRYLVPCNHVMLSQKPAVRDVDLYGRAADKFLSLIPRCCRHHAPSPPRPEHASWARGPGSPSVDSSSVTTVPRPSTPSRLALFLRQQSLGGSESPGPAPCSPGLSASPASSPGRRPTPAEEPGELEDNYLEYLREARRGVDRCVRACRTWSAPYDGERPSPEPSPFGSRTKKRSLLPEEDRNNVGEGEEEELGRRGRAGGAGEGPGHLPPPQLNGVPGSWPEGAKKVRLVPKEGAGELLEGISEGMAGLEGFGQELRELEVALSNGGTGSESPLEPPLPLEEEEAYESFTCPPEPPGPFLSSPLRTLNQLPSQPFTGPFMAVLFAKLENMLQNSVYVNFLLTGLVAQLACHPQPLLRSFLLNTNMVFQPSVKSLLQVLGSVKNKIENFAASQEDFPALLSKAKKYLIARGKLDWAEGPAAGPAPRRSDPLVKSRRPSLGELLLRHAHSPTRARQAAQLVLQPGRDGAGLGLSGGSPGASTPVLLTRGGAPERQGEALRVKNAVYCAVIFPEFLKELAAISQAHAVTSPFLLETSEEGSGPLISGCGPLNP
# UniProt Q5JRC9: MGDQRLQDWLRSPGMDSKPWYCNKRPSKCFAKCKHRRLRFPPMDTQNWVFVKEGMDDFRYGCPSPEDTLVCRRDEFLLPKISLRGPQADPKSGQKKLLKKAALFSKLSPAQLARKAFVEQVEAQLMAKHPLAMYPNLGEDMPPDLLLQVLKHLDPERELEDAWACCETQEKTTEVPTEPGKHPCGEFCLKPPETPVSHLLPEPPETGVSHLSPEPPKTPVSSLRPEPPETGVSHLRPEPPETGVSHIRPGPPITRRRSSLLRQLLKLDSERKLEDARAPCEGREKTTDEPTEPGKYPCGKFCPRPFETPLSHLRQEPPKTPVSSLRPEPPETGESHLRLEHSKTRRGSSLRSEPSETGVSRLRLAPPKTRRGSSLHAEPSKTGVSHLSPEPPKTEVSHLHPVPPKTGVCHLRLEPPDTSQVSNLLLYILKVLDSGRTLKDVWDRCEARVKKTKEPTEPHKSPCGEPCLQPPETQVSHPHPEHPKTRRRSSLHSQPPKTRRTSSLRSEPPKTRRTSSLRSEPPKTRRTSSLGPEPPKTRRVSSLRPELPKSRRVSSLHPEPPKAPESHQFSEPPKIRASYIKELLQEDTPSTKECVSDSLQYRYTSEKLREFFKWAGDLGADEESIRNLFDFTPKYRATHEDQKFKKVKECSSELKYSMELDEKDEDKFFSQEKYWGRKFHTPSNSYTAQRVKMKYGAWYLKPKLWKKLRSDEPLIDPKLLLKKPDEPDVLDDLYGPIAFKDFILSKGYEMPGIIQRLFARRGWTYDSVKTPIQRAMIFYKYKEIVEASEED
# The list shows a part of the results.
# Compound: CC1Cc2ccccc2N1C(=O)C1CCCN(C1)C(=O)CCl (mixture of isomers) [TRIM25 ligand 11 (diastereomer mixture)]
# Assay: probe-labelled cysteine peptide fold change vs DMSO (competition) (log2 fold change); higher = less target engagement (more negative = stronger competition)
# Conditions: THP-1, incubation time: 4 h
# 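Note: competitive chemoproteomic profiling in live THP-1 cells with an iodoacetamide desthiobiotin (IA-DTB) probe, comparing probe-labelled peptide intensities in compound-treated cells against DMSO-treated controls.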
Target,probe-labelled cysteine peptide fold change (10 µM),probe-labelled cysteine peptide fold change (50 µM)
FBXL20_Q96IG2_135_TTDATCTSLSK (UniProt Q96IG2),0.0516,-0.102
FBN2_P35556_98_FHSYCCPGWK (UniProt P35556),0.0697,0.354
FBXW11_Q9UKB1_393_VWSTSTCEFVR (UniProt Q9UKB1),0.0312,0.174
FCF1_Q9Y324_93_AKLDLVQSMMDCLYAK (UniProt Q9Y324),0.168,0.0918
FBXO3_Q9UK99_403_FHMACPTFR (UniProt Q9UK99),-0.0056,-0.132
FAM192A_Q9GZU8_44_KPEDPEECPEEVYDPR (UniProt Q9GZU8),-0.0902,-0.146
FERMT2_Q96AC1_426_GCEVTPDVNISGQK (UniProt Q96AC1),0.0821,0.17
FBXL18_Q96ME1_557_HLTLAQLPSVLTGSGLVNIGLQCQQLR (UniProt Q96ME1),-0.202,-0.471
FER_P16591_785_MSAPQHCPEDISK (UniProt P16591),-0.153,-0.15
FES_P07332_8_GFSSELCSPQGHGVLQQMQEAELR (UniProt P07332),0.0794,-0.137
FANCI_Q9NVI1_1085_TAAPTVCLLVLSQAEK (UniProt Q9NVI1),0.0413,0.0917
FAM160A2_Q8N612_258_YIADHSYFCPVLATGLSALYSSLPR (UniProt Q8N612),-0.211,-0.106
FAM136A_Q96C01_114_CVDDHMHLIPTMTK (UniProt Q96C01),-0.0626,-0.0428
FAM47A_Q5JRC9_650_ECSSELK (UniProt Q5JRC9),0.0869,0.135

# Complete entries from above. Values in the order: probe-labelled cysteine peptide fold change (10 µM)	probe-labelled cysteine peptide fold change (50 µM)
# FAM136A_Q96C01_114_CVDDHMHLIPTMTK (UniProt Q96C01) in the list: -0.0626	-0.0428
# FBN2_P35556_98_FHSYCCPGWK (UniProt P35556) in the list: 0.0697	0.354
